Measurements reported in PubChem BioAssay AID1159584 (Peter MacCallum Cancer Centre, 2016).

Aim: 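Knock-downs that harm CDH1-null cells more than parental MCF10A cells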 (primary screen)
System: human MCF10A breast epithelial cells, parental and CDH1-null
Reagents: siRNA against human genes
Read-out: 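ATP luminescence (CellTiter-Glo) viability per line relative to mean mock wells over all plates, and the ratio of CDH1-null to parental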
Scale: CDH1-null / parental viability ratio: higher = CDH1-null cells survive relatively better than parental; CDH1-null viability vs mock: higher = more viable CDH1-null cells; parental viability vs mock: higher = more viable parental cells
This is one part, drawn at random, of about 18,000 reagents. The record does not give: the amount of reagent, the time to read-out.

gene	CDH1-null / parental viability ratio	CDH1-null viability vs mock (fraction of mock)	parental viability vs mock (fraction of mock)
WNT10B (GeneID 7480)	0.79	0.74	0.94
IFI6 (GeneID 2537)	1.17	0.82	0.7
CD101 (GeneID 9398)	1	0.94	0.94
CRX (GeneID 1406)	1.21	0.93	0.77
SULF2 (GeneID 55959)	1.03	0.74	0.72
LINC00471 (GeneID 151477)	0.87	0.66	0.76
PTGES2 (GeneID 80142)	1	0.84	0.84
TRIM50 (GeneID 135892)	0.7	0.54	0.77
GSDMA (GeneID 284110)	0.98	0.9	0.92
PABPC4 (GeneID 8761)	0.87	0.94	1.08
SYCP1 (GeneID 6847)	0.67	0.38	0.57
HS3ST6 (GeneID 64711)	0.78	0.65	0.83
PKHD1 (GeneID 5314)	0.84	0.78	0.93
TBC1D25 (GeneID 4943)	1.11	0.42	0.38
LSM4 (GeneID 25804)	1.73	0.64	0.37
TIMP1 (GeneID 7076)	1.01	0.82	0.81
ZNF391 (GeneID 346157)	0.92	0.59	0.64
STK11 (GeneID 6794)	0.79	0.52	0.66
RRAGB (GeneID 10325)	1.21	0.85	0.7
AMPD1 (GeneID 270)	1.24	1.23	0.99
PPM1H (GeneID 57460)	1.27	1.07	0.84
TMPRSS3 (GeneID 64699)	0.8	0.32	0.4
FDPS (GeneID 2224)	1.34	1.15	0.86
ZNF765 (GeneID 91661)	1.17	0.94	0.8
WNT5A (GeneID 7474)	1.39	1	0.72
ODR4 (GeneID 54953)	0.79	0.65	0.82
USHBP1 (GeneID 83878)	1.11	0.78	0.7
EMILIN3 (GeneID 90187)	0.9	0.76	0.84
VIT (GeneID 5212)	1.11	1.05	0.95
OGFOD3 (GeneID 79701)	1.11	1	0.9
PIWIL3 (GeneID 440822)	1.24	1.02	0.82
RCOR1 (GeneID 23186)	1.04	0.73	0.7
GSN (GeneID 2934)	1.07	0.64	0.6
USP19 (GeneID 10869)	1.03	0.99	0.96
SORCS2 (GeneID 57537)	0.94	0.94	1
KLF17 (GeneID 128209)	1.29	1.03	0.8
CYB5D1 (GeneID 124637)	1.05	0.67	0.64
SHCBP1 (GeneID 79801)	1.33	0.97	0.73
RPL10L (GeneID 140801)	1.2	0.48	0.4
CCAR2 (GeneID 57805)	0.88	0.66	0.75
FAM133A (GeneID 286499)	0.92	0.9	0.98
SMAGP (GeneID 57228)	1	0.82	0.82
NSG1 (GeneID 27065)	1.14	1.09	0.96
KIR2DL5B (GeneID 553128)	1.01	0.7	0.69
MYDGF (GeneID 56005)	1.11	0.98	0.88
ZNF233 (GeneID 353355)	0.87	0.66	0.76
TAF6 (GeneID 6878)	0.91	0.86	0.94
ASB12 (GeneID 142689)	1.06	0.88	0.83
PON3 (GeneID 5446)	1.14	1.07	0.94
ATP5PF (GeneID 522)	0.98	0.63	0.64
ACSL5 (GeneID 51703)	0.79	0.71	0.9
MAD1L1 (GeneID 8379)	1.44	0.72	0.5
LRP5 (GeneID 4041)	1.06	0.82	0.77
PURB (GeneID 5814)	0.92	0.68	0.74
ADCY8 (GeneID 114)	1.02	0.94	0.92
RAB3B (GeneID 5865)	0.74	0.57	0.77
LHCGR (GeneID 3973)	1.49	0.94	0.63
EFNA5 (GeneID 1946)	0.84	0.77	0.92
TAF12 (GeneID 6883)	0.88	0.76	0.86
SIM1 (GeneID 6492)	1.03	0.89	0.86
NT5DC1 (GeneID 221294)	0.69	0.66	0.96
GALT (GeneID 2592)	1.11	0.78	0.7
ZNF180 (GeneID 7733)	0.89	0.7	0.79
FAM234A (GeneID 83986)	1.16	0.58	0.5
GTF2A1 (GeneID 2957)	0.91	0.6	0.66
RAD54L (GeneID 8438)	0.99	0.85	0.86
UGT2A1 (GeneID 10941)	0.91	0.86	0.94
BRD1 (GeneID 23774)	1.03	0.96	0.93

6 entries from above, showing only “CDH1-null / parental viability ratio”:
RAB3B (GeneID 5865): 0.74
LHCGR (GeneID 3973): 1.49
EFNA5 (GeneID 1946): 0.84
TAF12 (GeneID 6883): 0.88
SIM1 (GeneID 6492): 1.03
NT5DC1 (GeneID 221294): 0.69
